Experimental data taken from article PMC8927147, “Global profiling of regulatory elements in the histone benzoylation pathway” (Nature Communications, 2022).
No constants are given. Whether binding was seen depends on the method and setting. Some results given as binding are weak or reduced against the parent protein; the word gives no strength.

Sequences of proteins named here, by UniProt entry; tags and fusion partners are left off. Residues count along the entry.
UniProt Q03330, residues 67-317: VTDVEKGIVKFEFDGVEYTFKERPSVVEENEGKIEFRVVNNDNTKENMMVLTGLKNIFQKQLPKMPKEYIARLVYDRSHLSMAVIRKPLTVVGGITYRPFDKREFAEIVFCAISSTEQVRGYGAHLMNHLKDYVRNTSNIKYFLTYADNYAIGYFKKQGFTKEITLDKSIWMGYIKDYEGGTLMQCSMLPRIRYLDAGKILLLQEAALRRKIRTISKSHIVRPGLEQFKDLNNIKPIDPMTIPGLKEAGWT

Molecular target: Gcn5 (residues 67-317) (S. cerevisiae) (UniProt Q03330)
Experiment: co-purification (Ni-NTA, SEC); Ada2 (1-120) and Gcn5 (67-317) co-expressed in E. coli from pETDuet4; Ni-NTA, on-bead 3C digestion, size-exclusion chromatography

binding: binds
B1: Ada2 (residues 1-120) (domain or fragment, UniProt Q02336 1-120)
chain: MSNKFHCDVCSADCTNRVRVSCAICPEYDLCVPCFSQGSYTGKHRPYHDYRIIETNSYPILCPDWGADEELQLIKGAQTLGLGNWQDIADHIGSRGKEEVKEHYLKYYLESKYYPIPDIT
